Values joined by “and” are separate entries in the source; they are usually repeats but may differ in a detail not shown here. Equal values may be shown once. This is one part of the list. Further columns of the screen follow, without active or inactive calls. The list favours compounds with an active or inconclusive main result. Words in brackets tell the shape of the fitted curve; partial curves, single points and poor fits give uncertain potencies.
Assay: qHTS Assay for Modulators of Lamin A Splicing
Details: HeLa LMNA splicing GFP/RFP minigene ratio, 48 h
Procedure, shortened: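 S3 HeLa cells stably expressing lamin A-EGFP splicing minigene plus DsRed2, 600 cells/well, 48 h compound exposure at 37C. Laser-scanning cytometry; analysed as GFP (500-530 nm)/RFP (575-640 nm) total intensity ratio; 0.5% DMSO vehicle.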

[1] = measured here: RFP viability control channel
[2] = measured here: GFP splicing reporter channel

For CC(Cl)C(=O)NC(=O)NC12CC3CC(CC(C3)C1)C2 (centres undefined), the AC50 [1] was 8.91 µM [rising, partial curve, poor fit].

For CC(C)Oc1ccc(C(=O)Nc2ccc(N(C)C)cc2)cc1, the AC50 [1] was 0.0141 µM [rising, full curve, poor fit].

In the case of Cc1ccc(CN2CC(C(=O)Nc3cccc(S(=O)(=O)N4CCCCC4)c3)CC2=O)cc1 (centres undefined), the AC50 [2] was 0.01 µM [rising, full curve, poor fit] and the AC50 [1] was 17.8 µM [rising, partial curve].

For CC(C)CN(CC(C)C)C(=O)C12CCC(C)(C(=O)C1)C2(C)C (centres undefined), the AC50 [2] was 0.0891 µM [falling, full curve, poor fit].

In the case of COCc1nnc(NC(=O)c2ccc(S(=O)(=O)N(C)c3ccccc3)cc2)o1, the AC50 [1] was 22.4 µM [rising, single point].

For Cc1ccc(C)c(N=C2CCCN2Cc2ccccc2)c1C#N, the AC50 [1] was 35.5 µM [rising, single point].

In the case of CCc1nnc(NC(=O)CSc2nccn2Cc2ccc(F)cc2)s1, the AC50 [1] was 3.16 µM [falling, partial curve].

With CCOc1ccccc1NC(=O)NCCC1=CCCCC1 the AC50 [2] was 0.00316 µM [falling, full curve, poor fit].

In the case of CCCCNC(=O)/C(C#N)=C/c1ccc(C(=O)OC)cc1, the AC50 [2] was 5.01 µM [falling, partial curve, poor fit] and the AC50 [1] was 35.5 µM [falling, single point].

For Fc1ccc(COc2ccccc2CNCc2ccncc2)cc1, the AC50 [1] was 14.1 µM [rising, single point].

In the case of Cc1cc(C)cc(NS(=O)(=O)c2ccc(NC(=O)C3CCCCC3C(=O)O)cc2)c1 (centres undefined), the AC50 [1] was 10 µM [rising, partial curve, poor fit].

With CC(C)(C)NC(=O)Cn1c(=O)oc2cc(S(=O)(=O)N3CCc4ccccc43)ccc21 the AC50 [1] was 15.8 µM [rising, single point].

In the case of Cc1cccc(C(=O)Nc2ccccc2N2CCN(c3ccc(F)cc3)CC2)c1, the AC50 [2] was 35.5 µM [rising, single point] and the AC50 [1] was 31.6 µM [rising, single point].

In the case of COc1ccc(OC)c(C2C(C(=O)c3cc4ccccc4o3)=C(O)C(=O)N2c2cc(C)on2)c1 (centres undefined), the AC50 [1] was 7.08 µM [rising, partial curve].

In the case of COC(=O)CSc1nc2ccc(C)cc2cc1C#N, the AC50 [1] was 11.2 µM [falling, partial curve].

With Clc1ccc(C2=CSC3=NCCN23)cc1Cl the AC50 [2] was 14.1 µM [rising, partial curve, poor fit] and the AC50 [1] was 11.2 µM [rising, partial curve, poor fit].

For Cc1ccc2c(c1)-c1c(c(C(=O)NCCc3ccccc3)nn1C)CS2, the AC50 [2] was 35.5 µM [falling, single point] and the AC50 [1] was 0.158 µM [falling, full curve, poor fit].

For COc1ccc(CCC(=O)NCc2nc3cccnc3n2Cc2ccc(C)cc2)cc1, the AC50 [1] was 0.02 µM [falling, full curve, poor fit].

For CC(=O)Nc1nc(C)c(-c2csc(Nc3ccccn3)n2)s1, the AC50 [2] was 5.01 µM [falling, full curve] and the AC50 [1] was 0.158 µM [falling, full curve, poor fit].

In the case of c1cc(CN2CCCCC2)cc(OCCCNc2nc3ccccc3s2)c1, the AC50 [2] was 35.5 µM [falling, single point].

With COc1cc2cc(C)nc(Cc3cccc4ccccc34)c2cc1OC the AC50 [1] was 10 µM [rising, partial curve].

In the case of O=C(/C=C/c1cccc([N+](=O)[O-])c1)NCc1ccc2c(c1)OCO2, the AC50 [1] was 25.1 µM [rising, single point].

With CCOc1cc(CNCC(O)c2ccccc2)cc(Cl)c1OC (centres undefined) the AC50 [2] was 10 µM [falling, partial curve] and the AC50 [1] was 3.55 µM [falling, full curve].

In the case of c1ccc(CNc2nnnn2-c2ccccc2)cc1, the AC50 [2] was 22.4 µM [rising, single point] and the AC50 [1] was 25.1 µM [rising, single point].

In the case of CN1CCc2c(sc3ncn4nc(-c5ccccc5O)nc4c23)C1, the AC50 [1] was 20 µM [rising, single point].

For O=c1c(-c2cccs2)nc2cnc(N3CCNCC3)nc2n1C1CC1, the AC50 [2] was 17.8 µM [falling, single point] and the AC50 [1] was 12.6 µM [falling, single point].

For COc1ccc(-c2nc(C)c(CCNC(=O)c3cc(OC)c(OC)c(OC)c3)s2)cc1OC, the AC50 [1] was 0.398 µM [falling, partial curve, poor fit].

In the case of O=C(Nc1nc(-c2nc3ccccc3s2)cs1)C1COc2ccccc2O1 (centres undefined), the AC50 [1] was 14.1 µM [rising, single point].

In the case of Cc1cc(C)cc(C(=O)Nc2nnc(SCC(=O)N3CCCc4ccccc43)s2)c1, the AC50 [2] was 3.55 µM [falling, full curve, poor fit].

In the case of CCCCNS(=O)(=O)c1ccc(NC(=O)C2CCCO2)cc1 (centres undefined), the AC50 [2] was 8.91 µM [rising, partial curve] and the AC50 [1] was 12.6 µM [rising, single point].

For CCN(CC)S(=O)(=O)c1cnccc1N1CCN(c2cccc(Cl)c2)CC1, the AC50 [2] was 12.6 µM [rising, partial curve, poor fit] and the AC50 [1] was 15.8 µM [rising, partial curve].

With COC(=O)c1ccc(NC(=O)CSc2nc3ccccc3c(=O)[nH]2)cc1 the AC50 [1] was 6.31 µM [falling, single point].

In the case of COc1ccc(C(C#N)N2CCC(c3ccccc3)=N2)cc1OC (centres undefined), the AC50 [2] was 35.5 µM [falling, single point] and the AC50 [1] was 7.94 µM [falling, single point].

In the case of COc1cc(C=O)c(Br)cc1OCc1ccc(C)cc1, the AC50 [2] was 35.5 µM [falling, single point] and the AC50 [1] was 35.5 µM [falling, single point].

For O=C(CSc1nc(=O)[nH]c2c1CCCC2)NCc1ccc(Cl)cc1, the AC50 [2] was 11.2 µM [rising, partial curve, poor fit].

In the case of NC[C@H](O)c1ccc(O)c(O)c1, the AC50 [1] was 11.2 nM [falling, full curve, poor fit] and 5.62 µM [falling, single point].

— PubChem BioAssay AID1487 (National Center for Advancing Translational Sciences (NCATS), 2009)
